This is one part of the list. These are further read-outs of the screen, such as a control signal, another cell line or another target. No call is given for them. Compounds called inactive in the main read-out are mostly missing here. Potencies come from curve fits of mixed quality, noted in brackets.
Test: qHTS Assay for Modulators of Lamin A Splicing
Settings: HeLa LMNA splicing GFP/RFP minigene ratio, 48 h
Summary of the method: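 S3 HeLa cells stably expressing lamin A-EGFP splicing minigene plus DsRed2, 600 cells/well, 48 h compound exposure at 37C. Laser-scanning cytometry; analysed as GFP (500-530 nm)/RFP (575-640 nm) total intensity ratio; 0.5% DMSO vehicle.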

[1] = measured here: GFP splicing reporter channel
[2] = measured here: RFP viability control channel

Row | SMILES | AC50 [1] | AC50 [2]
1 | NC(CCC(=O)N[C@@H](CS)C(=O)NCC(=O)O)C(=O)O (some centres not stated) | 0.00316 µM [falling, full curve, poor fit] | 14.1 µM [rising, single point]
2 | COC(=O)CN1C(=O)CSc2ccc(S(=O)(=O)Nc3ccc(C(C)=O)cc3)cc21 |  | 1.26 µM [falling, partial curve]
3 | CC(C)(CNc1ccc([N+](=O)[O-])cc1Cl)CNS(C)(=O)=O | 15.8 µM [rising, single point] | 11.2 µM [rising, single point]
4 | CCOC(=O)c1cnc2c(OC)cccc2c1N1CCN(c2ccc(OC)cc2)CC1 |  | 10 µM [rising, partial curve]
5 | Cc1ccc(COCC(CC(C)C)N2CCN(C(=O)c3cccc(C(F)(F)F)c3)CCC2=O)cc1 (configuration not stated) | 14.1 µM [rising, partial curve, poor fit] | 14.1 µM [rising, partial curve]
6 | O=C(Nc1ccccc1C(=O)NCc1ccccc1)c1ccccc1Br |  | 35.5 µM [rising, single point]
7 | COc1ccc(S(=O)(=O)NCCc2csc3nc(-c4cccc(C)c4)nn23)cc1F | 0.00355 µM [falling, full curve, poor fit] | 0.00447 µM [falling, full curve, poor fit]
8 | Cc1ccc([N+](=O)[O-])cc1S(=O)(=O)N1CCC(C)CC1 | 0.0447 µM [rising, partial curve, poor fit] | 0.178 µM [rising, partial curve]
9 | COc1ccccc1NC(=O)CSc1nnc(NC(=O)Nc2ccc(C)cc2)s1 | 35.5 µM [falling, single point] | 35.5 µM [falling, single point]
10 | Cc1ccc(S(=O)(=O)N2CCCc3cc(NS(=O)(=O)c4cccc(Cl)c4)ccc32)cc1 | 11.2 µM [rising, single point] | 15.8 µM [rising, single point]
11 | CN(C)CCNC(=O)c1ccc2c(c1)NC(=O)C(CS(=O)(=O)Cc1cccc(Br)c1)N2 (configuration not stated) | 0.562 µM [falling, single point] | 0.0178 µM [falling, full curve, poor fit]
12 | Cc1cccc(NC(=O)c2cc3n(n2)C(C(F)(F)F)CC(c2ccc4c(c2)OCO4)N3)c1 (configuration not stated) |  | 4.47 µM [rising, single point]
13 | COc1ccc2cc(CN(Cc3ccco3)Cc3nnnn3C3CCCCC3)c(=O)[nH]c2c1 | 7.94 µM [rising, partial curve] | 11.2 µM [rising, partial curve]
14 | N#Cc1nc(COc2ccc(Br)cc2)oc1N1CCCC1 |  | 31.6 µM [rising, single point]
15 | CCc1nnc(NC(=O)CSc2nnc(-c3ccccc3O)o2)s1 | 0.316 µM [falling, full curve, poor fit] | 
16 | C[C@@H](C(=O)Nc1ccc2ccccc2c1)[C@H]1C[C@]1(C)[C@H](NC(=O)c1cnccn1)c1ccccc1 |  | 11.2 µM [rising, partial curve]
17 | COc1cccc(NC(=O)c2ccc(CN3CCOCC3)cc2)c1 |  | 14.1 µM [rising, single point]

Individual results from the results shown:
Cc1cccc(NC(=O)c2cc3n(n2)C(C(F)(F)F)CC(c2ccc4c(c2)OCO4)N3)c1 (configuration not stated) – AC50 [2]: 4.47 µM [rising, single point]
Cc1ccc(S(=O)(=O)N2CCCc3cc(NS(=O)(=O)c4cccc(Cl)c4)ccc32)cc1 – AC50 [1]: 11.2 µM [rising, single point]

(continued)

Row | SMILES | AC50 [1] | AC50 [2]
18 | Cc1ccc(CCNC(=O)c2ccc3c(c2)nc2n3CCCCC2)cc1 |  | 0.794 µM [rising, single point]
19 | COc1ccc(S(=O)(=O)Nc2ccc(-c3ccc(N4CCCC4)nn3)cc2)cc1F | 0.01 µM [falling, full curve, poor fit] | 0.00794 µM [falling, full curve, poor fit]
20 | CCOC(=O)C(NC(C)=O)(N1CCc2ccccc2C1)C(F)(F)F (configuration not stated) |  | 35.5 µM [falling, single point]
21 | CSc1cccc(NS(=O)(=O)c2cccc3nsnc23)c1 |  | 20 µM [rising, single point]
22 | O=C1c2ccccc2C(Nc2ccc3c(c2)OCCO3)N1Cc1ccco1 (configuration not stated) | 14.1 µM [rising, single point] | 22.4 µM [rising, partial curve]
23 | c1ccc(-c2ccc(C3=Nn4c(nnc4-c4cc(-c5ccccc5)n[nH]4)SC3)cc2)cc1 | 35.5 µM [falling, single point] | 35.5 µM [falling, single point]
24 | CCc1cccc(NS(=O)(=O)c2ccc3c(c2)CCC(=O)N3)c1 | 2.24 µM [falling, partial curve] | 2.51 µM [falling, partial curve]
25 | Cc1ccc(-c2nn3c(=O)cc(CN4CCN(C(=O)/C=C/c5ccccc5)CC4)nc3s2)cc1 | 0.501 µM [rising, partial curve, poor fit] | 
26 | CCc1ccc(-c2cn3c(n2)sc2cc(C(=O)NCCC4=CCCCC4)ccc23)cc1 |  | 0.02 µM [falling, full curve, poor fit]
27 | Cc1[nH]n(-c2ncc(-c3ccc(Cl)cc3)s2)c(=O)c1C(c1ccc(Cl)cc1)C(C#N)C#N (configuration not stated) |  | 17.8 µM [rising, partial curve, poor fit]
28 | O=C(COc1ccccc1)N1CCc2ccccc21 | 12.6 µM [rising, single point] | 
29 | CC(C)c1ccc(NC(=O)Cn2cc(S(=O)(=O)Cc3cccc(Cl)c3)c3ccccc32)cc1 |  | 28.2 µM [falling, partial curve]
30 | CCCN(CCC)C(=S)Nc1cc(C(=O)OC)ccc1C(=O)OC |  | 20 µM [rising, single point]
31 | COc1ccc(C(=O)Nc2nc3n(n2)C(c2ccccc2)C=C(c2ccccc2)N3)cc1 (configuration not stated) |  | 0.1 µM [falling, partial curve]
32 | O=C1CCCCC1C(=O)c1cn(-c2ccc(Cl)c(Cl)c2)nn1 (configuration not stated) | 0.2 µM [falling, full curve, poor fit] | 15.8 µM [falling, partial curve, poor fit]
33 | O=C(CP(=O)(c1ccccc1)c1ccccc1)N/N=C/c1cc(Br)cc(Br)c1O |  | 12.6 µM [rising, partial curve]
